Literature values in patent US11478522B2, “Synergistic herbal compositions with prebiotic properties for treatment of acne” (KAMEDIS LTD., priority 2016, dated 2022).
At least one compound was matched to its structure with a doubt left.

Protein sequences, listed by entry. Tags and fused reporters are not part of them.
UniProt P28845, whole entry, species assumed: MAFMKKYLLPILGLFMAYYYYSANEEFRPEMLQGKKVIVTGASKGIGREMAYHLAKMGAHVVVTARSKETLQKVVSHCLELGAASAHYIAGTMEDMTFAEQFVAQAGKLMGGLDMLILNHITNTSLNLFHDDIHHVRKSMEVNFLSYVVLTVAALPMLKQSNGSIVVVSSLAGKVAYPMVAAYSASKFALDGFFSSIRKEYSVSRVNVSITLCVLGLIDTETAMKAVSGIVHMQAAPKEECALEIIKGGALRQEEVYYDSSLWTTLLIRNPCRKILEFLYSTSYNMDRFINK

Biological target: enzyme 11β-HSD1 (Homo sapiens, UniProt P28845)

SMILES: O=C1c2cccc(O)c2C(=O)c2c(O)cc(CO)cc21 [aloe-emodin]
- inhibition of the enzyme 11β-HSD1: effective and selective as inhibitors
